{
  "source": "patent US8796300B2",
  "about": "“Therapeutic compounds” (Rutgers, the State University of New Jersey, priority 2009, dated 2014)",
  "key": {"[1]": {"test_system": "Human Telomeric G-Quadruplex DNA d(T2AG3)4", "experiment": "UV melting, thermal stabilization of G-quadruplex DNA (Test A)", "type": "binding", "conditions": "pH 7.5, 50 mM K+; Tm of the drug-DNA complex minus that of the DNA alone; absorbance at 295 nm", "excerpt": "(§1) Test A. Selective Stabilization of G-Quadruplex DNA Analyses can be performed to determine the ability of the compounds to selectively bind and thermally stabilize quadruplex relative to duplex DNA. Toward this end, the UV absorbances of the DNA molecules are monitored as a function of temperature in the absence and presence of compound. The melting of duplex DNA is generally associated with a hyperchromic shift at 260 nm, while the melting of quadruplex DNA is associated with a hypochromic shift at 295 nm. Thus, the temperature-dependent absorbances of duplex DNA are monitored at 260 nm, with the corresponding quadruplex absorbances being monitored at 295 nm. Salmon testes DNA can be used as a representative model of duplex DNA and d([…])4 can be used as a representative model of quadruplex DNA. All UV melting studies are conducted at physiological pH (7.4) in the presence of potassium ions at physiologically relevant concentrations. Representative compounds of formula I (compounds 6, 32, and 33) were evaluated for their abilities to selectively bind and stabilize G-quadruplex relative to duplex DNA. […] By contrast, none of the compounds exert any impact on the thermal stability of the DNA duplex (ΔTm=0° C. for all three compounds)."}, "[2]": {"test_system": "Salmon Testes Duplex DNA", "experiment": "UV melting, thermal stabilization of duplex DNA (Test A)", "type": "binding", "conditions": "pH 7.5, 50 mM K+; Tm of the drug-DNA complex minus that of the DNA alone; absorbance at 260 nm", "excerpt": "as §1"}},
  "note": "For at least one compound, name, drawing or mass did not settle the structure.",
  "data": [
    {"smiles": "NCCc1cc2cc(c1)CNC(=O)c1coc(n1)-c1coc(n1)-c1cccc(n1)-c1nc(co1)-c1nc(co1)C(=O)NC2", "note": "[Compound 32]", "values": [
      {"measurement": "Human Telomeric G-Quadruplex DNA ΔTm", "setting": "[1]", "result": 29.5, "unit": "°C"},
      {"measurement": "Salmon Testes Duplex DNA ΔTm", "setting": "[2]", "result": 0, "unit": "°C"}
    ]}
  ]
}
